Some of the results follow. Small differences around the control level are noise.

Sequences of proteins named here, by UniProt entry; tags and fusion partners are left off. A change or cut given only in a name is not applied to a line headed by its entry.
UniProt Q9Z2X8, whole entry: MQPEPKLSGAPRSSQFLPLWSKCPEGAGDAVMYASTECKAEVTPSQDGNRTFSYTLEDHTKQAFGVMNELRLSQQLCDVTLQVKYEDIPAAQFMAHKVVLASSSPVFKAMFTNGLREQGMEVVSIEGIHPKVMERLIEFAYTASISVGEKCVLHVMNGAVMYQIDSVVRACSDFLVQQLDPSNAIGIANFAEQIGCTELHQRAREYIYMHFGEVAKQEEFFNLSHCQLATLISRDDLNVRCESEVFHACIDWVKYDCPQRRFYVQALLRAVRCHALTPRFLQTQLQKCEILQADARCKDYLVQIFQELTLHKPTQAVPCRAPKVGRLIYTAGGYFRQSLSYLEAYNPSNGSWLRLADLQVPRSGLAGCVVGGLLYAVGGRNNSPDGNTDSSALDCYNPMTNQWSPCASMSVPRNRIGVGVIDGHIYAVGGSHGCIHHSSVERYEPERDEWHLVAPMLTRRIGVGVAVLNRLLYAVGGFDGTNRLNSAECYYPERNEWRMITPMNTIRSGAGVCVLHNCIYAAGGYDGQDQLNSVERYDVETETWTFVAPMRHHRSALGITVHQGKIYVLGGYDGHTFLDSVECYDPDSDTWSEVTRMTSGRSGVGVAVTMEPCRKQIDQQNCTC
UniProt Q9R182: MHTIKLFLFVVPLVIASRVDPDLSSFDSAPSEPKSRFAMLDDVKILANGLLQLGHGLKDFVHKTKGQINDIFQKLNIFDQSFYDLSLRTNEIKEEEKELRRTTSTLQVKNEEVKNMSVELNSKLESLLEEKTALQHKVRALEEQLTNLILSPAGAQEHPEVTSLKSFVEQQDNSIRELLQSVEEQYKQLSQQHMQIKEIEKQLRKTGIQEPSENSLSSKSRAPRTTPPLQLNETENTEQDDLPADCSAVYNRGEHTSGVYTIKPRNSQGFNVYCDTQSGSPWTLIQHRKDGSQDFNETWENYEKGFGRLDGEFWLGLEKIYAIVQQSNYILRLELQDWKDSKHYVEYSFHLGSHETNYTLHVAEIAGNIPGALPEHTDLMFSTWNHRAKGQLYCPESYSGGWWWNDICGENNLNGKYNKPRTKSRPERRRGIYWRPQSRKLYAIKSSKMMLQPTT
UniProt Q9WUB4, whole entry: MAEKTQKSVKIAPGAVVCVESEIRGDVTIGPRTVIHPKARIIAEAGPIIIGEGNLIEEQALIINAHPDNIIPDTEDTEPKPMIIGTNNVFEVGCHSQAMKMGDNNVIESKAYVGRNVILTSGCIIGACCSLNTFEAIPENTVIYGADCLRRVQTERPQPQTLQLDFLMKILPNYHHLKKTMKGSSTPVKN
UniProt Q9Z1F9: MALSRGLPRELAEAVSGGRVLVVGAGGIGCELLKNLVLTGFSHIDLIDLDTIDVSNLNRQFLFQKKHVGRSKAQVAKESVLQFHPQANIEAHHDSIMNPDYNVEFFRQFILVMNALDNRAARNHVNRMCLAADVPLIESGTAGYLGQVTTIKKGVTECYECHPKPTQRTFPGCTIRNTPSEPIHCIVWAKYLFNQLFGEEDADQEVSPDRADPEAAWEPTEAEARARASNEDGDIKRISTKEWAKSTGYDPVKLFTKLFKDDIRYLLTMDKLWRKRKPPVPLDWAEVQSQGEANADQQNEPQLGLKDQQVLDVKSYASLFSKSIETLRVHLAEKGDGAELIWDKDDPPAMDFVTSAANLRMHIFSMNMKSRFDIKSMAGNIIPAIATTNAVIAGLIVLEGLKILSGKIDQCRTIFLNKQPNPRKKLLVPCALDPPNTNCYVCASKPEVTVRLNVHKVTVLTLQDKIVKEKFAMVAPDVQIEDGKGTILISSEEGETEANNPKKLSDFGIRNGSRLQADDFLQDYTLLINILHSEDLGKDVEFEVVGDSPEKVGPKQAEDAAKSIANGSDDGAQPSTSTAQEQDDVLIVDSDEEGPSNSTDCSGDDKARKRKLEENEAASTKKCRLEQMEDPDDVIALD
UniProt Q9Z2A7: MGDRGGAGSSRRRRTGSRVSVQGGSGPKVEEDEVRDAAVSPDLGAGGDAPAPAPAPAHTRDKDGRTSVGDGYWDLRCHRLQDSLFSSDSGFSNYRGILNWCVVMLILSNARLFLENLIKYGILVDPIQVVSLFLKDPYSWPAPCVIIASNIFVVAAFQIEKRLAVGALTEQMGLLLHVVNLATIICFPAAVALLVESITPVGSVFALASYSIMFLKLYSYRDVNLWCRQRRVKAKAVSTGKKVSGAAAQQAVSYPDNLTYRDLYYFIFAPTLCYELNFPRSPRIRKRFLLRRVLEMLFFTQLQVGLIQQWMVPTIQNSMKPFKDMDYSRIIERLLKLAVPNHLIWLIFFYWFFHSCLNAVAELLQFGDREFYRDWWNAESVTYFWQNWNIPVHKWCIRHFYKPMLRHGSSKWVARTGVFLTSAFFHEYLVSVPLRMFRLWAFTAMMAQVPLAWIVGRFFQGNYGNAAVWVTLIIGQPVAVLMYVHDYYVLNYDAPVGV
UniProt Q9QZ25: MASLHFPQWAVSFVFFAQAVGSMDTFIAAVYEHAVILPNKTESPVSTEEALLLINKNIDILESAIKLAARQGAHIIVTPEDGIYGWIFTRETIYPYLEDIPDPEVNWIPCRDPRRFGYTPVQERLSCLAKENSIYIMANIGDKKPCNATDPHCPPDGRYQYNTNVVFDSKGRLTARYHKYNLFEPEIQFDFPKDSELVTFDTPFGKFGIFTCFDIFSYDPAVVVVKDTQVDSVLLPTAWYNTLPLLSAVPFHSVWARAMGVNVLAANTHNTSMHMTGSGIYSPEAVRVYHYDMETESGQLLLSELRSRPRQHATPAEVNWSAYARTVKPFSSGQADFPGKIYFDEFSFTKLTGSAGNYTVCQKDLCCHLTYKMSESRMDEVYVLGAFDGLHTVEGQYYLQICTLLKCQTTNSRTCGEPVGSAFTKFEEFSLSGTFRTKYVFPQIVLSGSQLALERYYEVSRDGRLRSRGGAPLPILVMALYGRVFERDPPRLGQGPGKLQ
UniProt Q9Z223: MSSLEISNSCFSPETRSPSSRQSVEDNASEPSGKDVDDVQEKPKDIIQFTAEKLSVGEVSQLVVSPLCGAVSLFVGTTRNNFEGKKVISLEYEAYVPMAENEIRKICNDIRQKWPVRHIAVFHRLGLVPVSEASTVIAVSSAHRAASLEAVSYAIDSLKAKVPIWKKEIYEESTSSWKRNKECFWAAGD
UniProt Q9R1S7: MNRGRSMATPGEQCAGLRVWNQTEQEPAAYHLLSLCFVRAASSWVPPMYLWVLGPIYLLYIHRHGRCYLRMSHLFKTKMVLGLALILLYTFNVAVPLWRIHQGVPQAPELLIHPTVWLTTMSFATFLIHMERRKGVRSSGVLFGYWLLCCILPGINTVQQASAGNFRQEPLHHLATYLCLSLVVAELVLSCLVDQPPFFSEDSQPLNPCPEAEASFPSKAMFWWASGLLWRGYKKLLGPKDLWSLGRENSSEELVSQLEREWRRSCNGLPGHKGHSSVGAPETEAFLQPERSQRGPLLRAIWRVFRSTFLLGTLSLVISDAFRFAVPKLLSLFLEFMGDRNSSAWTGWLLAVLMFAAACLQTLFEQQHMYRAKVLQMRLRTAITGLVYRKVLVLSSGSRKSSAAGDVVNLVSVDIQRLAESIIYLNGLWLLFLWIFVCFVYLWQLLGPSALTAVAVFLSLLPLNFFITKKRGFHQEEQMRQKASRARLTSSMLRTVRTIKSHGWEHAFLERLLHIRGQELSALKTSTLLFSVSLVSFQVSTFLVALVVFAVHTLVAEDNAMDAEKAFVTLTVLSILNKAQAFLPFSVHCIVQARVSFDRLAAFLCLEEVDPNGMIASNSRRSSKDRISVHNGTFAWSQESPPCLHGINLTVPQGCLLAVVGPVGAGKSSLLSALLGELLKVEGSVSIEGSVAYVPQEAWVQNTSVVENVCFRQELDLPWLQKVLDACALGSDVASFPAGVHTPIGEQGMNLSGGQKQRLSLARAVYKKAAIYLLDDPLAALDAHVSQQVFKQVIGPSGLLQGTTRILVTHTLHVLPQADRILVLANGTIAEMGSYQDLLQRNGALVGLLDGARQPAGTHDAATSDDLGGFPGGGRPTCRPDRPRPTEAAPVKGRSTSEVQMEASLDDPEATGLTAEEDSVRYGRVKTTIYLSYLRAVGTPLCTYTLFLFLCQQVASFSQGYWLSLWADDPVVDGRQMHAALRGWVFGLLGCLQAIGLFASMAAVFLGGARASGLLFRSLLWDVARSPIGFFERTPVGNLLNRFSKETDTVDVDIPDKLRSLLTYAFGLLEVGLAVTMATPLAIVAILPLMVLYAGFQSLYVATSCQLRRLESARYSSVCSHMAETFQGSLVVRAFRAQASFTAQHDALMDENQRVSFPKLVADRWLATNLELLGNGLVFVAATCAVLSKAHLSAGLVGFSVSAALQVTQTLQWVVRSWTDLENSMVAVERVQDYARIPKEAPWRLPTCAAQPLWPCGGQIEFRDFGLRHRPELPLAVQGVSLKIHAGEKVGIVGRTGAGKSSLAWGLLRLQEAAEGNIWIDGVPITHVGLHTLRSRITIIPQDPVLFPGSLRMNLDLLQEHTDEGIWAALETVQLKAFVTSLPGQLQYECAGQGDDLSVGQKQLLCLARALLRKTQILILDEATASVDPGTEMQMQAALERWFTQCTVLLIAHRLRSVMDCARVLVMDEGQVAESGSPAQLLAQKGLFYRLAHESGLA
UniProt Q9QZQ8, whole entry: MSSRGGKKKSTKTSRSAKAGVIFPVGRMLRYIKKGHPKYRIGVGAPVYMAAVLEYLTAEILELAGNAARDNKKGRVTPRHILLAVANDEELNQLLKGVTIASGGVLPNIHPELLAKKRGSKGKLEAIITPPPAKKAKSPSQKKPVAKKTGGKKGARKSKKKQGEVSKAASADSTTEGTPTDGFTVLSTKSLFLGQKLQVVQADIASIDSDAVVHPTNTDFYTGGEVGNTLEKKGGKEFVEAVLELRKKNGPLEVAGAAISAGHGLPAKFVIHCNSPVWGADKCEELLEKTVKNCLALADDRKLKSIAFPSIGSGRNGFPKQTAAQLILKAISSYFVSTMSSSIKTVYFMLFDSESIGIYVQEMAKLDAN
UniProt Q9WVA2: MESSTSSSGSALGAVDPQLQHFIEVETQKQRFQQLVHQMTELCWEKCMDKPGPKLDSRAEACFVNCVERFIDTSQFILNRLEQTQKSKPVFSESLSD
UniProt Q9Z0G9: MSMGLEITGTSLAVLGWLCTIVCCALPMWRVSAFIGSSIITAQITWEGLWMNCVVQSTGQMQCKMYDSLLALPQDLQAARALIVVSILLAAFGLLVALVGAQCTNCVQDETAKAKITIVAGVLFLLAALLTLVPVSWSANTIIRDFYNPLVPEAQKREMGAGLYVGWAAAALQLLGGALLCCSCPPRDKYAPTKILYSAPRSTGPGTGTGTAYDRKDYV
UniProt Q9WV18, whole entry: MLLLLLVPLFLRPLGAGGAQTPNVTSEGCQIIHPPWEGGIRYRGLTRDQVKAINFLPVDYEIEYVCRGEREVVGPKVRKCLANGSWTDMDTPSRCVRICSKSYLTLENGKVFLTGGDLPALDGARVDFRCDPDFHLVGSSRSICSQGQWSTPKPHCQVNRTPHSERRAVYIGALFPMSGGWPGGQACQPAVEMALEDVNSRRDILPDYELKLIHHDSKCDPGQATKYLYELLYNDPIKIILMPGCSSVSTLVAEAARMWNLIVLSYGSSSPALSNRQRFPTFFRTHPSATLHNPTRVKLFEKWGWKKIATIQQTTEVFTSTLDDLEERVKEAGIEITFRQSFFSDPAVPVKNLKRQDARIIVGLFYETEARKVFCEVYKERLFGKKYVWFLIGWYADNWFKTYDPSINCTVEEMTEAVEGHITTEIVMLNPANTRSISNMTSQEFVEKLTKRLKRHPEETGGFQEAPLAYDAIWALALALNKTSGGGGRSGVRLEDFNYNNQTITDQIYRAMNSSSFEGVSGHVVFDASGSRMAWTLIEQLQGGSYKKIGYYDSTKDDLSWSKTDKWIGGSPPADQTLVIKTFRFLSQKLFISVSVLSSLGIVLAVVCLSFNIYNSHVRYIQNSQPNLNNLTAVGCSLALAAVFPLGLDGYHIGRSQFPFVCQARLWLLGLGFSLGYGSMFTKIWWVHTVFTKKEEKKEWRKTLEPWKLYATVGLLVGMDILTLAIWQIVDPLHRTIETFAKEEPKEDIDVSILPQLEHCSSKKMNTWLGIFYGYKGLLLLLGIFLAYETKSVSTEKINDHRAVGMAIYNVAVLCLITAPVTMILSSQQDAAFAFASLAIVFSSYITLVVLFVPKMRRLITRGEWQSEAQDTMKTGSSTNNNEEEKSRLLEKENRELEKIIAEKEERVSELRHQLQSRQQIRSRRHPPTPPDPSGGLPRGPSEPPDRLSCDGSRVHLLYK
UniProt Q9R1T2: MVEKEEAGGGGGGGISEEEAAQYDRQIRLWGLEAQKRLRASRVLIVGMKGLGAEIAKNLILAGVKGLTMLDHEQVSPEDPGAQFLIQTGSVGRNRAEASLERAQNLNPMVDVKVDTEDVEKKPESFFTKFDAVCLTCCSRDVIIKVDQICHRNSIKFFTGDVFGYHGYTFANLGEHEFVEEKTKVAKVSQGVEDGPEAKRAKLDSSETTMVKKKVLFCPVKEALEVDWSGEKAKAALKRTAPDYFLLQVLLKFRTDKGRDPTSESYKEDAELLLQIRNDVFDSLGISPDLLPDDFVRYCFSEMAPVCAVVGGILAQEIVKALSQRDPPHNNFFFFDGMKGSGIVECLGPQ

Compound in the test: CN[C@@H]1C[C@H]2O[C@@](C)([C@@H]1OC)n1c3ccccc3c3c4c(c5c6ccccc6n2c5c31)C(=O)NC4 [staurosporine]
Kind of test: log2 fold change of pooled soluble protein (PISA), ligand vs vehicle (log2 ratio); higher = more thermally stabilized. The note with it: ligand concentration: 20 uM; assay format: PISA pool 52.9/55.5/58.6 C.
UniProt Q9Z2X8: the “log2 fold change of pooled soluble protein” value (“log2 fold change” for short) was found to be 0.0916.

On to UniProt Q9QZ08, for which the “log2 fold change” value is -0.244.

On to UniProt Q9Z1R3, for which the “log2 fold change” value was 0.033.

For UniProt Q9R182, the “log2 fold change” value turned out to be 0.174.

As to UniProt Q9WUB4, the “log2 fold change” value was -0.504.

As to UniProt Q9Z1F9, the “log2 fold change” value is -0.0404.

As for UniProt Q9WU78, the “log2 fold change” value was -0.0377.

Turning to UniProt Q9R098, the “log2 fold change” value is 0.0814.

Take UniProt Q9R1Q6: the “log2 fold change” value was -0.0707.

In the case of UniProt Q9QZB9, the “log2 fold change” value turned out to be 0.00157.

Regarding UniProt Q9WUR2, the “log2 fold change” value is 0.0384.

UniProt Q9R269: the “log2 fold change” value was -0.0303.

In the case of UniProt Q9Z2A7, the “log2 fold change” value came out at 0.0503.

With UniProt Q9Z2D6, the “log2 fold change” value was found to be 0.133.

In the case of UniProt Q9QZ25, the “log2 fold change” value was -0.119.

In the case of UniProt Q9Z223, the “log2 fold change” value is -0.0494.

For UniProt Q9Z2D8, the “log2 fold change” value was -0.131.

In the case of UniProt Q9WUD1, the “log2 fold change” value is -0.0359.

For the target UniProt Q9Z1P7, the “log2 fold change” value was -0.0585.

On to UniProt Q9Z108, for which the “log2 fold change” value was -0.0457.

Take UniProt Q9Z2L6: the “log2 fold change” value stood at 0.0393.

On to UniProt Q9Z2V4, for which the “log2 fold change” value is -0.0542.

Turning to UniProt Q9Z2R9, the “log2 fold change” value came out at 0.0692.

Regarding UniProt Q9Z2Q5, the “log2 fold change” value is -0.103.

Consider UniProt Q9WVD5, for which the “log2 fold change” value came to 0.103.

In the case of UniProt Q9R0P3, the “log2 fold change” value worked out at 0.0119.

Turning to UniProt Q9R1S7, the “log2 fold change” value is -0.11.

Regarding UniProt Q9QZQ8, the “log2 fold change” value came out at 0.0167.

As to UniProt Q9WVA2, the “log2 fold change” value is -0.03.

For the target UniProt Q9Z0G9, the “log2 fold change” value worked out at 0.217.

Take UniProt Q9WU79: the “log2 fold change” value is -0.00676.

For UniProt Q9WV18, the “log2 fold change” value was -0.504.

Turning to UniProt Q9WUH7, the “log2 fold change” value came to 0.0398.

For UniProt Q9WV54, the “log2 fold change” value was -0.0441.

For the target UniProt Q9QZB7, the “log2 fold change” value was 0.0539.

Turning to UniProt Q9Z0K8, the “log2 fold change” value was determined as 0.0791.

On to UniProt Q9R0P5, for which the “log2 fold change” value is -0.0847.

Consider UniProt Q9QZM0, for which the “log2 fold change” value was 0.00105.

UniProt Q9R1T2: the “log2 fold change” value is -0.00689.

The values above are taken from the supplement of paper PMC12819154, “High-throughput peptide-centric local stability assay extends protein–ligand identification to membrane proteins, tissues and bacteria” (Nature Structural & Molecular Biology, 2025).
